# Measured values as given in publication PMC6751061.
# Molecular target: T1, LexA (Bacillus subtilis 3610) (UniProt P31080)
# T1 sequence (looked up, limits assumed): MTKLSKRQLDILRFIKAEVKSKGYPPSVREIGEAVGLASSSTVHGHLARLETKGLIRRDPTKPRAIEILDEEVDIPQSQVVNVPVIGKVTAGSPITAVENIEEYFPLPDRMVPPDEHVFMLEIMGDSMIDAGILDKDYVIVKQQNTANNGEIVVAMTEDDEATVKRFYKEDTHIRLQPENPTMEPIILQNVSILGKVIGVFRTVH
# Experiment: EMSA
# Settings: 4 nM probe, poly(dI-dC), EMSA: 4 nM 32P probe, LexA 1-500 nM, 100 mM Tris-HCl, 50% glycerol, 500 mM NaCl, 10 mM EDTA, 10 mM DTT, recombinant protein, label: 5'-32P, probe letters rebuilt from the primers and the genome
Sequence,binding signal (fold lower affinity) (relative to PsigNUP),binding result (shift at LexA as low as 1 nM)
AGGAGGAATTCTACCTCCTTTTCTTTTGCTAAATGATGGGGTATCATTTATTAAGTTAAAGATATACATAAAATGAATATTTTATGTTAAATAAGGTCATTTGAGCCTTACATGTCTATATGTTCATATATCCGTTCTTATTCGCTAAAAAATATTTTACAGTGTTCCCTCAATCACCGTATTATGATATTATATTAACGTGTCGGTCAACATAATAAAGGTCATATCAACAAAACAAACTAAACTTTCATAATCCTTCGACTATGGGGAATAATCAAAAAAAGAGGTGTACGATCTAGTACTTATGGATCCCTCCT (double strand) [PsigNUP*],100,
AGGAGGAATTCTACCTCCTTTTCTTTTGCTAAATGATGGGGTATCATTTATTAAGTTAAAGATATACATAAAATGAATATTTTATGTTAAATAAGGTCATTTGAGCCTTACATGTCTATATGTTCATATATCCGTTCTTATTCGCTAAAAAATAGGAACAAATGTTCCCTCAATCACCGTATTATGATATTATATTAACGTGTCGGTCAACATAATAAAGGTCATATCAACAAAACAAACTAAACTTTCATAATCCTTCGACTATGGGGAATAATCAAAAAAAGAGGTGTACGATCTAGTACTTATGGATCCCTCCT (double strand) [PsigNUP],,binds

# The exact form of at least one protein or probe is not confirmed. Where a protein sequence is shown, tags need not be part of it. The direction of at least one scale is not stated here.
